In PubChem BioAssay (Tox21):
Where “and” joins values, the source holds several entries; their conditions need not be identical. Equal values may be shown once. Inconclusive results, whose numbers are uncertain, are shown with a selection of clear calls. For part of these data: Where the call is inconclusive, the potency comes from a doubtful curve fit. Calls of active or inactive are those of the source. Unless noted, the call rests on the fitted dose curve.

Sequences of proteins named here, by UniProt entry; tags and fusion partners are left off.
UniProt P28223, whole entry, looked up: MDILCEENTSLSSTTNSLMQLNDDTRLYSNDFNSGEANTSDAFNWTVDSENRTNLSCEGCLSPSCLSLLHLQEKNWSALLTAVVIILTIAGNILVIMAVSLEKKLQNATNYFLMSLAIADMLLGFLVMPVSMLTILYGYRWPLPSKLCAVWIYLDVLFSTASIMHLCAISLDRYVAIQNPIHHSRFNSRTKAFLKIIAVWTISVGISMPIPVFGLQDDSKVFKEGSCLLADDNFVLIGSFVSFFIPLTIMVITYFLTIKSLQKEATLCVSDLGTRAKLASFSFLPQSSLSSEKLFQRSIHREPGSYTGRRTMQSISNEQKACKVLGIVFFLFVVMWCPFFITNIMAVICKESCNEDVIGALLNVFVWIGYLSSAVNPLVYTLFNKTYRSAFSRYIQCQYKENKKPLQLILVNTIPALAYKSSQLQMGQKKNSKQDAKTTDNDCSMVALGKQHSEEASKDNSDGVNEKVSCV
UniProt P14416, whole entry, looked up: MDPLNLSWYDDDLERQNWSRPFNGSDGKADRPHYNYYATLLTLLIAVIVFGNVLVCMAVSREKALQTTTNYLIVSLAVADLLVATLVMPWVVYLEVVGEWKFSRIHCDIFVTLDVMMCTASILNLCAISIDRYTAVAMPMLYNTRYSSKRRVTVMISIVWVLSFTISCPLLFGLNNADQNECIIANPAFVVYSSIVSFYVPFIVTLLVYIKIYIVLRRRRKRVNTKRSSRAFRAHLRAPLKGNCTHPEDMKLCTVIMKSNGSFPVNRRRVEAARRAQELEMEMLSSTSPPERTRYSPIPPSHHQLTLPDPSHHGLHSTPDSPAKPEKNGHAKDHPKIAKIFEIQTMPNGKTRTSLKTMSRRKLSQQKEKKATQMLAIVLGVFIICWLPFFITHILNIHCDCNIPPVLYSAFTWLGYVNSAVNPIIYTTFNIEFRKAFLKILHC

Tests used:
[1] = p53 small molecule agonists, cell-based qHTS assay with human liver microsomes (AID 1963577); settings: HCT-116 p53RE-bla with human liver microsomes, ratio, 16 h; activation: at 66 µM (top of the series) unless noted; further: potency means the concentration at half of the fitted maximal effect
Method in brief: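 Metabolically competent format: test substances, human liver microsomes and NADPH (both 0.5 mg/mL final) incubated with p53RE-bla cells 16 h at 37 C. Beta-lactamase reporter signal then quantified by fluorescence.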

[2] = p53 small molecule agonists, cell-based qHTS assay with rat liver microsomes (AID 1963578); settings: HCT-116 p53RE-bla, beta-lactamase ratio, 16 h; activation: at 66 µM (top of the series) unless noted; further: potency means the concentration at half of the fitted maximal effect; on activation: on the % scale 0 is the no-effect control and ±100 the full control effect
Method in brief: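 Each plate received p53RE-bla cells, then compound, then rat liver microsomes and NADPH (both 0.5 mg/mL final). Plates were held 16 h at 37 C, and beta-lactamase activity was detected with LiveBLAzer over 2 h.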

[3] = p53 small molecule agonists, cell-based qHTS assay with human liver microsomes: qHTS cell viability counter screen (AID 1963579); further: potency means the concentration at half of the fitted maximal effect; nearly all actives have a fitted effect of over 45% in size
Method in brief: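 Tox21 library compounds, delivered from DMSO stocks, were tested on p53RE-bla cells together with 0.5 mg/mL human liver microsomes and 0.5 mg/mL NADPH (final) over 16 h at 37 C; CellTiter-Glo luminescence served as the cytotoxicity measure.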

[4] = target: Beta-2 adrenergic receptor (Homo sapiens) (UniProt P07550); assay: Adrenergic beta2 receptor (ADRB2) small molecule agonists, cell-based qHTS assay (AID 1963593); settings: CHO-ADRB2 cells, cAMP HTRF, 30 min; activation: at 92.4 µM (top of the series) unless noted; further: potency means the concentration at half of the fitted maximal effect;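 on activation: CHO cells stably overexpressing human ADRB2; on the % scale 0 is the no-effect control and ±100 the full control effect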
Method in brief: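 CHO cells stably over-expressing ADRB2 were plated overnight at 37C, then dosed with compounds plus a stimulation mix containing 100uM IBMX and 25uM Ro-20-1724 for 0.5hr at room temperature. cAMP was measured by HTRF competition, 1hr.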

[5] = G protein-coupled receptor (GPCR) small molecule agonists, calcium flux assay: HEK293 wild type cell line counter screen (AID 1920065); further: potency means the concentration at half of the fitted maximal effect
Method in brief: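 Non-specific calcium responders were flagged by adding DMSO-dissolved compounds to dye-loaded cells and reading 480/540 nm fluorescence each second for 3 min; ATP served as positive control.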

[6] = p53 small molecule agonists, cell-based qHTS assay with rat liver microsomes: qHTS cell viability counter screen (AID 1963580); further: potency means the concentration at half of the fitted maximal effect; nearly all actives have a fitted effect of over 45% in size
Method in brief: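 After the beta-lactamase ratio was read, CellTiter-Glo was added to the same wells and luminescence measured at 30 min; cells had been treated 16 h at 37 C with compounds, rat liver microsomes and NADPH (0.5 mg/mL final each).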

[7] = p53 small molecule agonists, cell-based qHTS assay: qHTS cell viability counter screen (AID 1963581); further: potency means the concentration at half of the fitted maximal effect; nearly all actives have a fitted effect of over 45% in size
Method in brief: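 Multiplexed with the reporter read, a CellTiter-Glo step (30 min, room temperature) gauges ATP-based viability of HCT-116 p53RE-bla cells after 16 h compound incubation at 37 C.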

[8] = p53 small molecule agonists, cell-based qHTS assay (AID 1963582; active means well fitted activation curve with a large enough effect in the signal ratio in the repeat runs, not every such curve was filed as active; inconclusive means weak or mixed curves; the % refers to the signal ratio; further: potency means the concentration at half of the fitted maximal effect; on activation: on the % scale 0 is the no-effect control and ±100 the full control effect); settings: HCT-116 p53RE-bla reporter, beta-lactamase FRET ratio, 16 h; activation: at 66 µM (top of the series) unless noted
Method in brief: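 Beta-lactamase reporter cells (p53RE-bla) treated with compounds for 16 h at 37 C; FRET substrate, 2 h, room temperature; fluorescence intensity.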

[9] = cAMP Responsive Elements (CRE) small molecule agonists, cell-based qHTS assay (AID 1963590); settings: CRE-bla HEK293T, beta-lactamase FRET ratio, 3 h; activation: at 92.4 µM (top of the series) unless noted; further: potency means the concentration at half of the fitted maximal effect
Method in brief: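 Quantitative HTS for CRE agonists: HEK 293T CRE-bla cells, overnight plating, 3 h compound incubation at 37 C/5% CO2, then 2 h room-temperature LiveBLAzer B/G FRET substrate loading.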

[10] = cAMP Responsive Elements (CRE) small molecule antagonists, cell-based qHTS assay (AID 1963591; active means well fitted inhibition curve with a large enough effect in the signal ratio in the repeat runs, not every such curve was filed as active; inconclusive means weak or mixed curves, or effect the other way; the % refers to the signal ratio; further: potency means the concentration at half of the fitted maximal effect); settings: CRE-bla HEK293T, beta-lactamase FRET ratio; activity change, negative = inhibition: at 92.4 µM (top of the series) unless noted
Method in brief: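 Fluorescence intensity from cleaved LiveBLAzer B/G substrate (2 h, room temperature) quantified CRE-bla activity in HEK 293T cells exposed 3 h to compound with 0.25 uM final NKH477.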

[11] = target: Beta-2 adrenergic receptor (Homo sapiens) (UniProt P07550); assay: Adrenergic beta2 receptor (ADRB2) small molecule antagonists, cell-based qHTS assay (AID 1963592); settings: CHO-ADRB2 cells, isoproterenol-stimulated cAMP HTRF ratio, 0.5 h; activity change, negative = inhibition: at 92.4 µM (top of the series) unless noted; further: potency means the concentration at half of the fitted maximal effect; nearly all actives have a fitted effect of over 50% in size
Method in brief: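 Assay format: CHO-ADRB2 cells, 18-20hr seeding at 37C/5% CO2, then compound plus 1nM isoproterenol agonist mix for 0.5hr RT. Homogeneous time-resolved fluorescence cAMP detection after 1hr, expressed as 665/615 nm ratio.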

[12] = target: 5-hydroxytryptamine receptor 2A (Homo sapiens) (UniProt P28223); assay: 5-hydroxytryptamine receptor 2A (HTR2A) small molecule antagonists, cell-based qHTS assay (AID 1963586); further: nearly all actives have a fitted effect of over 45% in size; further: potency means the concentration at half of the fitted maximal effect
Method in brief: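 CHO cells stably expressing human HTR2A were plated for 18 h at 37 C, then loaded with calcium dye for 1 h. Compounds were preincubated 5 min at room temperature before DOI (4 nM solution) was added. Kinetic fluorescence was read for 3 min.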

[13] = target: D(2) dopamine receptor (Homo sapiens) (UniProt P14416); assay: Dopamine D2 receptor (DRD2) small molecule agonists, cell-based qHTS assay (AID 1963594); settings: HEK293-DRD2 cAMP HTRF, agonist mode, 30 min; activation: at 92.4 µM (top of the series) unless noted; further: nearly all actives have a fitted effect of over 35% in size; further: potency means the concentration at half of the fitted maximal effect
Method in brief: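 HEK293 cells stably expressing human DRD2, pre-treated with PDE inhibitor Ro20-1724 (0.1 mM final) and compound 10 min at room temperature, then stimulated with NKH477 (200nM […]) for 30 min. cAMP read by HTRF (665/620 nm).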

[14] = target: D(2) dopamine receptor (Homo sapiens) (UniProt P14416); assay: Dopamine D2 receptor (DRD2) small molecule antagonists, cell-based qHTS assay (AID 1963595; active means well fitted inhibition curve with a large enough effect in the signal ratio in the repeat runs, with a control signal flat; inconclusive means weak or mixed curves, or effect the other way; the % refers to the signal ratio; further: on the % scale 0 is the no-effect control and ±100 the full control effect); settings: HEK293-DRD2 cAMP HTRF antagonist mode; activity change, negative = inhibition: at 92.4 µM (top of the series) unless noted
Method in brief: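 HEK293 cells stably expressing DRD2 were preincubated with 0.1 mM Ro20-1724, then with compound for 10 min at room temperature. Cells were stimulated with 200 nM NKH477 plus 12 nM quinpirole for 30 min, and cAMP was read by HTRF.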

**Q.** Which Potency [1] does the source give for `CCOP(=S)(OCC)Oc1ccc(Cl)cc1Cl` here?
**A.** The Potency was inconclusive: 40.8 µM [rising, partial curve].

**Q.** What about the Potency [2] of the same compound?
**A.** Its Potency is inconclusive: 16.2 µM [fluorescent, full curve].

**Q.** What about the Potency [3] of the same compound?
**A.** The Potency was active: 45.8 µM.

**Q.** What about the Potency [4] of the same compound?
**A.** The Potency was “inactive”.

**Q.** For `N#Cc1cc(I)c(O)c(I)c1`, which Potency [5] is on record?
**A.** The Potency was inconclusive: 43.6 µM [activator, partial curve, poor fit].

**Q.** And the Potency [6]?
**A.** Its Potency is active: 45.8 µM.

**Q.** What about the Potency [7] of the same compound?
**A.** The Potency was inconclusive: 45.8 µM [cytotoxic, partial curve, poor fit].

**Q.** And the activation [8]?
**A.** Its activation is inconclusive: 22.1%.

**Q.** And the Potency [9]?
**A.** The Potency was inconclusive: 48.6 µM [rising, partial curve].

**Q.** What about the Potency [10] of the same compound?
**A.** Its Potency is inconclusive: 61.1 µM [fluorescent].

**Q.** And the Potency [11]?
**A.** Its Potency is inconclusive: 54.5 µM [falling, partial curve, poor fit].

**Q.** What about the Potency [4] of the same compound?
**A.** Its Potency is “inactive”.

**Q.** For `O=C(CCl)NCO`, which Potency [1] is on record?
**A.** The Potency was inconclusive: 1.82 µM [rising, single point].

**Q.** And the Potency [2]?
**A.** Its Potency is “inactive”.

**Q.** What about the Potency [3] of the same compound?
**A.** Its Potency is inconclusive: 1.82 µM [cytotoxic, single point].

**Q.** What about the activation [4] of the same compound?
**A.** The activation was inconclusive: -172%.

**Q.** Which results are given for `CCOP(=S)(OCC)SCn1nnc2ccccc2c1=O`?
**A.** Potency [1]: active: 3.24 µM; Potency [2]: inconclusive: 1.62 µM [fluorescent]; Potency [7]: inconclusive: 0.182 µM [cytotoxic, single point]; Potency [12]: inconclusive: 47.2 µM [inhibitor, single point]; Potency [9]: inconclusive: 61.1 µM; Potency [10]: inconclusive: 54.5 µM [activator, partial curve]; Potency [4]: inconclusive: 30.6 µM [inhibitor, partial curve, poor fit]

**Q.** For `CNC(=O)Oc1ccc(N(C)C)c(C)c1`, which Potency [1] is on record?
**A.** Its Potency is active: 10.2 µM.

**Q.** What about the Potency [2] of the same compound?
**A.** Its Potency is inconclusive: 2.89 µM [fluorescent, full curve].

**Q.** And the Potency [12]?
**A.** Its Potency is “inactive”.

**Q.** And the activation [4]?
**A.** The activation was inconclusive: -0.0227%.

**Q.** What does the source list for `CCCCCCCC(=O)Cl`?
**A.** Potency [1]: inactive; Potency [2]: inconclusive: 46.2 µM [fluorescent, single point]; Potency [8]: inconclusive: 18.4 µM [rising, full curve]; Potency [9]: inconclusive: 54.9 µM [rising, partial curve, poor fit]; Potency [4]: inconclusive: 0.245 µM [inhibitor, single point]; Potency [13]: active: 0.0017 µM

**Q.** Which Potency [1] does the source give for `CCOP(=O)(OCC)SCCSCC` here?
**A.** Its Potency is inconclusive: 1.1 µM [fluorescent, full curve] and inconclusive: 1.29 µM [fluorescent, full curve].

**Q.** And the Potency [2]?
**A.** The Potency was inconclusive: 1.74 µM [fluorescent, full curve] and inconclusive: 1.97 µM [fluorescent].

**Q.** What about the activation [8] of the same compound?
**A.** Its activation is inconclusive: 11.5%.

**Q.** What about the activation [4] of the same compound?
**A.** The activation was inconclusive: -37%.

**Q.** What about the Potency [13] of the same compound?
**A.** Its Potency is inconclusive: 34.3 µM [falling, partial curve, poor fit].

**Q.** What does the source list for `COP(=S)(OC)Oc1ccc(Sc2ccc(OP(=S)(OC)OC)cc2)cc1`?
**A.** Potency [1]: inconclusive: 7.25 µM [fluorescent, partial curve] and inconclusive: 707 nM [fluorescent, full curve]; Potency [2]: inconclusive: 1.82 µM [fluorescent, full curve] and inconclusive: 8.9 µM [fluorescent, full curve]; Potency [8]: inconclusive: 20.4 µM; Potency [12]: inconclusive: 0.46 µM [inhibitor, single point]; Potency [4]: inconclusive: 24.3 µM [falling, partial curve, poor fit]; activation [4]: inconclusive: 11.4% [at 42.5 µM]

**Q.** Which Potency [1] does the source give for `CCOP(=O)(OCC)Oc1ccc([N+](=O)[O-])cc1` here?
**A.** The Potency was active: 654 nM and active: 513 nM.

**Q.** And the Potency [2]?
**A.** Its Potency is inconclusive: 1.46 µM [fluorescent, full curve] and inconclusive: 646 nM [fluorescent, full curve].

**Q.** What about the Potency [8] of the same compound?
**A.** The Potency was inconclusive: 14.5 µM [falling, full curve, poor fit].

**Q.** And the Potency [10]?
**A.** The Potency was inconclusive: 49.2 µM [inhibitor, partial curve, poor fit] and inconclusive: 14.3 µM [inhibitor, single point].

**Q.** And the activation [4]?
**A.** Its activation is inconclusive: 34%.

**Q.** With `c1csc(-c2ccc(-c3cccs3)s2)c1` as the compound, how does the activation [1] read?
**A.** Its activation is inconclusive: 20.8%.

**Q.** And the Potency [2]?
**A.** Its Potency is inconclusive: 16.2 µM [fluorescent, partial curve].

**Q.** What about the activation [8] of the same compound?
**A.** Its activation is inconclusive: 14.5%.

**Q.** And the Potency [9]?
**A.** The Potency was inconclusive: 38.6 µM [fluorescent, partial curve, poor fit].

**Q.** What about the Potency [10] of the same compound?
**A.** Its Potency is inconclusive: 54.5 µM [activator, partial curve].

**Q.** And the Potency [4]?
**A.** Its Potency is “inactive”.

**Q.** What about the activation [13] of the same compound?
**A.** The activation was inconclusive: -2.9%.

**Q.** And the Potency [14]?
**A.** The Potency was “inactive”.
